The data set is described as follows: peptide synthesis. The settings on record: whole synthesis.

On to “(Pyr)Glu-His(Tos)-Trp-Ser(Bzl)-Tyr-(Bzl)-D-Leu-Leu-Arg(Tos)-Pro-NH-CH2 -CH3”, for which the difficulty met result was “This crude product includes a large proportion of impurity which is likely to be methyl ester”.
